Experimental data: publication PMC12668627
Read-outs that look alike come from different tables or passages of the source. No constants are given. Whether binding was seen depends on the method and setting. Binding seen in cells or lysates may run through a third protein. Some binding calls cover weakened binding; strength is not graded here. For part of these data: Where a sequence is shown, tags or fusion partners need not be part of it.

Sequences of proteins named here, by UniProt entry; tags and fusion partners are left off.
UniProt Q13485: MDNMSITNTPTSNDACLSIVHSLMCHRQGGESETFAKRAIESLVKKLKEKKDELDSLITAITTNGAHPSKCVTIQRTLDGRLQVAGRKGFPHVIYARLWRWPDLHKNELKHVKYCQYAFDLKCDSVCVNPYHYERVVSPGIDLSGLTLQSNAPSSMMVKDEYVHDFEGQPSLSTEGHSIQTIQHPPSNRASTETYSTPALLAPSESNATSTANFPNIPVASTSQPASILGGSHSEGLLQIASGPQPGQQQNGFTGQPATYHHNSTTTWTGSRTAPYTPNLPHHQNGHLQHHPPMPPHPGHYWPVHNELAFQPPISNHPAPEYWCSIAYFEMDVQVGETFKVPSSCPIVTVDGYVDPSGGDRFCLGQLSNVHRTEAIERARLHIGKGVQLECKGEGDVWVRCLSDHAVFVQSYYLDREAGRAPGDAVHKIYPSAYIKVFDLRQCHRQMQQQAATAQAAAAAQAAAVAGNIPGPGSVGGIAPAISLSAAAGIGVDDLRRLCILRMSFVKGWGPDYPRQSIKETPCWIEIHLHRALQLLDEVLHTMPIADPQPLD
UniProt P84022: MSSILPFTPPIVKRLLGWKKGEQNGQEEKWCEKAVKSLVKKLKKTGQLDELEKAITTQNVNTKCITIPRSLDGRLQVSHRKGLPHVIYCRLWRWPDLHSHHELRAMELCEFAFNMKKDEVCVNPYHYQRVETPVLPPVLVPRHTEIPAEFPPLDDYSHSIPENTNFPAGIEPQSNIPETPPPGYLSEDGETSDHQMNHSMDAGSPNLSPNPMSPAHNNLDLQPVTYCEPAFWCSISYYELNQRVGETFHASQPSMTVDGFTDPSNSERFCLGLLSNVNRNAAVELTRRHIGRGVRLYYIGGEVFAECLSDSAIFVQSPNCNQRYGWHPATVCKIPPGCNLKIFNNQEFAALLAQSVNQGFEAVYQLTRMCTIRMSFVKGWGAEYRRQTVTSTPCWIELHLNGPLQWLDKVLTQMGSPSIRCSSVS
UniProt P35222: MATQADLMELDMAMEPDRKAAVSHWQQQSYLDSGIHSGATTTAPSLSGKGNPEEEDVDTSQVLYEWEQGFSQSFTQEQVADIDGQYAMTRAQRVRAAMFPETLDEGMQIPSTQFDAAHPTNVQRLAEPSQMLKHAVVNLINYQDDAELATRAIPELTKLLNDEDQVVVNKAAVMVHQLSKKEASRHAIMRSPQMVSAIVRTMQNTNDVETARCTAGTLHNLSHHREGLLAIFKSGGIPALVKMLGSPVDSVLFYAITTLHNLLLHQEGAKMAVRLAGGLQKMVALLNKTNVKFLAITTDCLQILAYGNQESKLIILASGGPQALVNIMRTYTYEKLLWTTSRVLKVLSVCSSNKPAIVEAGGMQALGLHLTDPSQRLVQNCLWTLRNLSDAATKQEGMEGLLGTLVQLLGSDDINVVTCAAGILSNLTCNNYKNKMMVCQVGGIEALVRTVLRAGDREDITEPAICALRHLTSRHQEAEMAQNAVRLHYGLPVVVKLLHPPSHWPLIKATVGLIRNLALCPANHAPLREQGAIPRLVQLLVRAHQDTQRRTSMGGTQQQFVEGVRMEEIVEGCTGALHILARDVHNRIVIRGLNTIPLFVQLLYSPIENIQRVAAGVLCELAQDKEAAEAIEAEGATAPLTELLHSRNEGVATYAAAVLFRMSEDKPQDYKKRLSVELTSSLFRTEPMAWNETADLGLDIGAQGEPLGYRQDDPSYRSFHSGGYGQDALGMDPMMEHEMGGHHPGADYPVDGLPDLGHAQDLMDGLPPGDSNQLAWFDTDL
UniProt Q93009: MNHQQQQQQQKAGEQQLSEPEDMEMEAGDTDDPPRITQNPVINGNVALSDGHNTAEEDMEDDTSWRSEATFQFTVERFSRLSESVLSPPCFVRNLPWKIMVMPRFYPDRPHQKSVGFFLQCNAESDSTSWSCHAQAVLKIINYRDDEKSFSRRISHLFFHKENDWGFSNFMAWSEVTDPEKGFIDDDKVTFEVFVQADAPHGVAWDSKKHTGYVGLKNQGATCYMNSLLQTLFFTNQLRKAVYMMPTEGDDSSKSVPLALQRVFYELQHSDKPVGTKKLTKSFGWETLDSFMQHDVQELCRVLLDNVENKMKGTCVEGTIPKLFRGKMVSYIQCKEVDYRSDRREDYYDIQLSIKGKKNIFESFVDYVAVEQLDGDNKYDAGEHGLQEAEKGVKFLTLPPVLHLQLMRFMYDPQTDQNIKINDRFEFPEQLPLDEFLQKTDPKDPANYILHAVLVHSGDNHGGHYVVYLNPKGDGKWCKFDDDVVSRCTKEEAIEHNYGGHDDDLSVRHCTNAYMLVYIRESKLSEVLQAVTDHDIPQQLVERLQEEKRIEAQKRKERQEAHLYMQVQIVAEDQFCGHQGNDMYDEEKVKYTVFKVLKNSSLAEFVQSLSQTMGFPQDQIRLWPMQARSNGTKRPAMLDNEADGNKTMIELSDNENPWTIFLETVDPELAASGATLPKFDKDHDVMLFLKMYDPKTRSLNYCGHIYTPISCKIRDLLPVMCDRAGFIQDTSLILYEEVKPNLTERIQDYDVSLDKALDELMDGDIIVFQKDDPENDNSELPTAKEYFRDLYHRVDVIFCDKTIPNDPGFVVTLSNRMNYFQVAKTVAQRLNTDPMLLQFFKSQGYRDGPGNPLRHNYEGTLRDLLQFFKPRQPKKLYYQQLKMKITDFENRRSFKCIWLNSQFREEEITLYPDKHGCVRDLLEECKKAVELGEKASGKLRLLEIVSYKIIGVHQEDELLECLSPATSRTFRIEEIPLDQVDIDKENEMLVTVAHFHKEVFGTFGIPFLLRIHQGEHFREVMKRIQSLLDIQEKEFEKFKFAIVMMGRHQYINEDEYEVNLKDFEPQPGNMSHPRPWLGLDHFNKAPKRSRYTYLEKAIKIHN

B1: TRIM33 (expression construct) (protein, UniProt Q9UPN9 1-1127)
chain: MAENKGGGEAESGGGGSGSAPVTAGAAGPAAQEAEPPLTAVLVEEEEEEGGRAGAEGGAAGPDDGGVAAASSGSAQAASSPAASVGTGVAGGAVSTPAPAPASAPAPGPSAGPPPGPPASLLDTCAVCQQSLQSRREAEPKLLPCLHSFCLRCLPEPERQLSVPIPGGSNGDIQQVGVIRCPVCRQECRQIDLVDNYFVKDTSEAPSSSDEKSEQVCTSCEDNASAVGFCVECGEWLCKTCIEAHQRVKFTKDHLIRKKEDVSESVGASGQRPVFCPVHKQEQLKLFCETCDRLTCRDCQLLEHKEHRYQFLEEAFQNQKGAIENLLAKLLEKKNYVHFAATQVQNRIKEVNETNKRVEQEIKVAIFTLINEINKKGKSLLQQLENVTKERQMKLLQQQNDITGLSRQVKHVMNFTNWAIASGSSTALLYSKRLITFQLRHILKARCDPVPAANGAIRFHCDPTFWAKNVVNLGNLVIESKPAPGYTPNVVVGQVPPGTNHISKTPGQINLAQLRLQHMQQQVYAQKHQQLQQMRMQQPPAPVPTTTTTTQQHPRQAAPQMLQQQPPRLISVQTMQRGNMNCGAFQAHQMRLAQNAARIPGIPRHSGPQYSMMQPHLQRQHSNPGHAGPFPVVSVHNTTINPTSPTTATMANANRGPTSPSVTAIELIPSVTNPENLPSLPDIPPIQLEDAGSSSLDNLLSRYISGSHLPPQPTSTMNPSPGPSALSPGSSGLSNSHTPVRPPSTSSTGSRGSCGSSGRTAEKTSLSFKSDQVKVKQEPGTEDEICSFSGGVKQEKTEDGRRSACMLSSPESSLTPPLSTNLHLESELDALASLENHVKIEPADMNESCKQSGLSSLVNGKSPIRSLMHRSARIGGDGNNKDDDPNEDWCAVCQNGGDLLCCEKCPKVFHLTCHVPTLLSFPSGDWICTFCRDIGKPEVEYDCDNLQHSKKGKTAQGLSPVDQRKCERLLLYLYCHELSIEFQEPVPASIPNYYKIIKKPMDLSTVKKKLQKKHSQHYQIPDDFVADVRLIFKNCERFNEMMKVVQVYADTQEINLKADSEVAQAGKAVALYFEDKLTEIYSDRTFAPLPEFEQEEDDGEVTEDSDEDFIQPRRKRLKSDERPVHIK
B2: ERC1 (expression construct of the Flag-IP) (protein, UniProt Q8IUD2 1-1116)
chain: MYGSARSVGKVEPSSQSPGRSPRLPRSPRLGHRRTNSTGGSSGSSVGGGSGKTLSMENIQSLNAAYATSGPMYLSDHENVGSETPKSTMTLGRSGGRLPYGVRMTAMGSSPNIASSGVASDTIAFGEHHLPPVSMASTVPHSLRQARDNTIMDLQTQLKEVLRENDLLRKDVEVKESKLSSSMNSIKTFWSPELKKERALRKDEASKITIWKEQYRVVQEENQHMQMTIQALQDELRIQRDLNQLFQQDSSSRTGEPCVAELTEENFQRLHAEHERQAKELFLLRKTLEEMELRIETQKQTLNARDESIKKLLEMLQSKGLSAKATEEDHERTRRLAEAEMHVHHLESLLEQKEKENSMLREEMHRRFENAPDSAKTKALQTVIEMKDSKISSMERGLRDLEEEIQMLKSNGALSTEEREEEMKQMEVYRSHSKFMKNKVEQLKEELSSKEAQWEELKKKAAGLQAEIGQVKQELSRKDTELLALQTKLETLTNQFSDSKQHIEVLKESLTAKEQRAAILQTEVDALRLRLEEKETMLNKKTKQIQDMAEEKGTQAGEIHDLKDMLDVKERKVNVLQKKIENLQEQLRDKEKQMSSLKERVKSLQADTTNTDTALTTLEEALAEKERTIERLKEQRDRDEREKQEEIDNYKKDLKDLKEKVSLLQGDLSEKEASLLDLKEHASSLASSGLKKDSRLKTLEIALEQKKEECLKMESQLKKAHEAALEARASPEMSDRIQHLEREITRYKDESSKAQAEVDRLLEILKEVENEKNDKDKKIAELERQVKDQNKKVANLKHKEQVEKKKSAQMLEEARRREDNLNDSSQQLQDSLRKKDDRIEELEEALRESVQITAEREMVLAQEESARTNAEKQVEELLMAMEKVKQELESMKAKLSSTQQSLAEKETHLTNLRAERRKHLEEVLEMKQEALLAAISEKDANIALLELSSSKKKTQEEVAALKREKDRLVQQLKQQTQNRMKLMADNYEDDHFKSSHSNQTNHKPSPDQIIQPLLELDQNRSKLKLYIGHLTTLCHDRDPLILRGLTPPASYNLDDDQAAWENELQKMTRGQLQDELEKGERDNAELQEFANAILQQIADHCPDILEQVVNALEESS

Key:
Assay in all cases: co-IP; HEK293T cells transfected with plasmids for Flag-fused proteins, RIPA lysate, anti-Flag affinity beads 4 °C 2 hours or overnight, immunoblot; HA-TbC or GFP-Flag as controls; TRIM33 with β-catenin also with or without Wnt3a stimulation
[1] = biological target: SMAD4 (construct of the Flag-IP) (UniProt Q13485)
[2] = biological target: SMAD3 (construct of the Flag-IP) (UniProt P84022)
[3] = biological target: SMAD4 (construct of the Flag-IP) (UniProt Q13485); remark: listed apart in the source
[4] = biological target: β-catenin (construct of the Flag-IP) (human) (UniProt P35222)

Molecule | binding [1] | binding [2] | binding [3] | binding [4]
USP7 (expression construct of the Flag-IP) (from UniProt Q93009 1-1102) | binds | – | – | –
B1 | – | binds | binds weakly | binds
B2 | – | – | binds | binds
